From paper PMC13345634, “Dynamic assembly of malate dehydrogenase–citrate synthase multienzyme complex in the mitochondria” (eLife, 2026)
These are yes or no findings as the source states them, for the method shown. For part of these data: In cells and extracts the contact can be indirect. Some results given as binding are weak or reduced against the parent protein; the word gives no strength. Tags and fused reporters may be left off the sequences shown.

B1: CIT1-LgBiT-HA (mitochondrial citrate synthase CIT1 fused at its C-terminus to the large NanoBiT subunit) (enzyme, UniProt P00890 38-479)
chain: SSASEQTLKERFAEIIPAKAEEIKKFKKEHGKTVIGEVLLEQAYGGMRGIKGLVWEGSVLDPEEGIRFRGRTIPEIQRELPKAEGSTEPLPEALFWLLLTGEIPTDAQVKALSADLAARSEIPEHVIQLLDSLPKDLHPMAQFSIAVTALESESKFAKAYAQGVSKKEYWSYTFEDSLDLLGKLPVIASKIYRNVFKDGKITSTDPNADYGKNLAQLLGYENKDFIDLMRLYLTIHSDHEGGNVSAHTTHLVGSALSSPYLSLAAGLNGLAGPLHGRANQEVLEWLFKLREEVKGDYSKETIEKYLWDTLNAGRVVPGYGHAVLRKTDPRYTAQREFALKHFPDYELFKLVSTIYEVAPGVLTKHGKTKNPWPNVDSHSGVLLQYYGLTEASFYTVLFGVARAIGVLPQLIIDRAVGAPIERPKSFSTEKYKELVKKIESKN
B2: recombinant CIT1 (without the mitochondrial targeting signal, C-terminal 6x His tag) (enzyme)
chain: B1 chain

What was measured:
[1] = target: T1, MDH1-SmBiT-cMyc (mitochondrial malate dehydrogenase MDH1 fused at its C-terminus to the small NanoBiT subunit) (S. cerevisiae) (UniProt P17505); assay: co-IP; protein extracts of the Split-luc line grown in SD-Raff, 1.5 and 2.5 hr after 2% glucose application; MDH1 precipitated with anti-cMyc agarose, co-precipitated CIT1 detected with anti-HA antibody after SDS-PAGE
T1 sequence: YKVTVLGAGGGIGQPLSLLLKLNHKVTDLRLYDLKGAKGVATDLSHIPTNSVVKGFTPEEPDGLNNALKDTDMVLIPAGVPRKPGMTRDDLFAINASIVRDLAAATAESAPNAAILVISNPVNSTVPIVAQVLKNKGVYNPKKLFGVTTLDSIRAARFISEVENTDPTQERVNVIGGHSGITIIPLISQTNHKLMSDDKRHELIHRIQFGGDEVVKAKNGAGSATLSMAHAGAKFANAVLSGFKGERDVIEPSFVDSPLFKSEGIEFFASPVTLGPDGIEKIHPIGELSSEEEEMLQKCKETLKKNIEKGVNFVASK

[2] = target: T1, MDH1-SmBiT-cMyc (mitochondrial malate dehydrogenase MDH1 fused at its C-terminus to the small NanoBiT subunit) (S. cerevisiae); assay: split reporter; NanoBiT split luciferase in living yeast cells (MDH1/CIT1-BiT strain), furimazine substrate, microplate reader, 28°C; cells grown in SD-Raff or SD-Acet; treatments of SD-Raff-grown cells: glucose, fructose, sucrose, galactose, raffinose, phosphate, acetate, ethanol, arsenite, AOA, malonate, cyanide, antimycin, oligomycin, CCCP
[3] = target: T2, recombinant MDH1 (without the mitochondrial targeting signal, C-terminal 6x His tag), fluorescently labeled (S. cerevisiae) (UniProt P17505); assay: MST; fluorescently labeled MDH1 as the target, CIT1 as the ligand; Monolith NT.115, room temperature; MST buffer (50 mM Tris-HCl pH 8, 150 mM NaCl, 10 mM MgCl2, 5 mM DTT, 0.05% Tween-20) without or with 10 mM malate, fumarate, α-ketoglutarate, succinate, aspartate or glutamate, or 1.25, 2.5 or 5 mM ATP; both purified
T2 sequence (chain, fluorescent label (Protein Labeling Kit RED-NHS 2nd Generation)): T1 sequence

| Binder | binding [1] | binding [2] | binding [3] |
| --- | --- | --- | --- |
| B1 | binds | binds |  |
| B2 |  |  | binds |
